Measurements reported in PubChem BioAssay AID588497 (NMMLSC, 2011).
Screen size: about 360,000 compounds; about 780 (0.22%) were called active. This list was built around the results that the source calls inconclusive (neither active nor inactive); the mix of calls is not that of the screen. No stated cut-off is given here; in the data, active means inhibition above about 35% (passing the limit was not always enough); inconclusive means no clear call, values can overlap the other calls.

Test system: Botulinum neurotoxin type F light chain protease (Clostridium botulinum)
Test: BoNT/F light chain protease inhibitors, primary screen, biochemical, flow cytometry, MLPCN library (AID 588497); further: plate controls were buffer without enzyme for full effect and enzyme alone for no effect
Conditions: Multiplex microsphere protease cleavage assay, at 10 µM, stronger effect = higher value

Row | SMILES | inhibition
1 | CC(=O)N(Nc1ccccc1)c1ccccc1 | active: 35.3%
2 | COc1ccc(CN2CCN(CCCc3ccccc3)C(CCO)C2)c(O)c1 (stereo not given) | inconclusive: 12.4%
3 | COc1ccccc1CN1CC(C(=O)NC2(c3ccccc3)CC2)CCC1=O (stereo not given) | inactive: 1.5%
4 | CC(=O)C1=C(C)Nc2ncnn2C1c1ccccc1F (stereo not given) | inactive: 26%
5 | CC(C)=CCN1CCN(Cc2coc3ccc(C)cc3c2=O)CC1CCO (stereo not given) | inconclusive: 3.3%
6 | Cc1ccc(-c2c[n+](=O)c3c(n2[O-])CCC3)cc1 | inconclusive: -14%
7 | COc1cc(N2Cc3ccccc3C2)ccc1C=O | inconclusive: -20.3%
8 | COc1cccc(CN(C)C(=O)c2cccc(S(=O)(=O)N3CCN(c4ccc(F)cc4)CC3)c2)c1OC | inconclusive: -0.2%
9 | CCOC(=O)N1CCN(C(=O)c2cc(COc3ccc(F)cc3F)on2)CC1 | inconclusive: 15.6%
10 | CCOC(=O)C1CCCN(CCC(=O)Nc2cccc(Cl)c2C)C1 (stereo not given) | inactive: -2.1%
11 | O=C(Nc1ccc(F)cc1)Nc1csc2ccccc12 | inconclusive: -70.1%
12 | Cc1nn(-c2ccccc2)c(=O)c2noc(C)c12 | inconclusive: -5.4%
13 | O=C(NCCCCc1ccccc1)c1ccc(F)cc1 | inconclusive: -42.1%
14 | C=CCOc1cccc(C(=O)N(C)C2CCCN(Cc3ccccc3F)C2)c1 (stereo not given) | inconclusive: 16%
15 | Cc1ccc(SC2=C(Sc3ccc(C)cc3)C(=O)c3ccccc3C2=O)cc1 | inconclusive: -76.9%
16 | Cc1cccc(N2CCN(C(=O)CN3C(=O)NC(C)(C4CC4)C3=O)CC2)c1C (stereo not given) | inconclusive: 5.4%
17 | COc1cc(/C=N/NC(=O)c2cc(-c3ccc4c(c3)OCO4)n[nH]2)ccc1O | inactive: -2.7%
18 | c1ccc2cc(OCCCn3ccnc3)ccc2c1 | inconclusive: -28%
19 | CCN(CC)C(=O)Cn1c(=O)n(C)c2ccccc21 | inactive: -7.4%
20 | Cc1nc2cc(NCc3ccc(Cl)cc3)ccc2n1C | inconclusive: -30.7%
21 | NC(=S)N/N=C1\CC(c2ccc3c(c2)OCCO3)Oc2ccc(F)cc21 (stereo not given) | inconclusive: -28.2%
22 | COCCCNC(=O)C(Cc1ccccc1)NS(=O)(=O)c1ccc2c(c1)c(=O)n(C)c(=O)n2C (stereo not given) | active: 51.7%
23 | CCSc1nnc(SCC(=O)Nc2cc(C)on2)s1 | inactive: 7.7%
24 | N#C/C(=C(\O)Cc1ccccc1)c1nc2ccccc2[nH]1 | inconclusive: -8.1%

Row | SMILES | inhibition
25 | CC(=O)Nc1ccc(S(=O)(=O)NCC2CCCO2)cc1 (stereo not given) | inconclusive: -26%
26 | OCC1(CCOc2ccccc2)CCN(Cc2ccc(OC(F)F)cc2)CC1 | inconclusive: -12.5%
27 | COC(=O)C1=C(C)N(CC(C)C)C(=O)C1 | inactive: 3.5%
28 | Cc1ccc(C)c(OCCOCCN2CCOCC2)c1 | inactive: 5.6%
29 | CCOC(=O)c1cn(CC)c2ccc(S(=O)(=O)N3CCC(C)CC3)cc2c1=O | inactive: -12.6%
30 | Cc1onc(-c2ccc(Cl)cc2Cl)c1-c1csc(N/N=C/c2ccccc2Cl)n1 | inconclusive: 24%
31 | CC(=O)N(CCc1cccc(C)c1)Cc1cc2cc(C)ccc2[nH]c1=O | inconclusive: -1.6%
32 | O=C(CSc1ccc(Br)cc1)Nc1ccccc1N1CCOCC1 | inactive: -2.6%
33 | COc1cccc(Oc2cn[nH]c2-c2ccc(OCC(=O)NN)cc2O)c1 | inconclusive: -54.9%
34 | Cc1cc(C)c(-c2c(O)c3cccnc3n(C)c2=O)c(C)c1 | inconclusive: 24.4%
35 | CCN(CC(=O)Nc1c(F)cccc1F)C(=O)CNC(=O)c1cccc(C)c1 | inconclusive: -13.6%
36 | COCCCNC(=S)N1CCN(c2nc(-c3cccc(OC)c3)cs2)CC1 | inconclusive: 18.4%
37 | O=C(NCc1ccc2c(c1)OCO2)c1ccc(S(=O)(=O)NCC2CCCO2)cc1 (stereo not given) | inconclusive: 15.6%
38 | O=C(Nc1ccccc1Cl)c1ccc(-c2ccccn2)s1 | inconclusive: 107%
39 | COc1ccccc1-c1cc(C(=O)Nc2cccnc2)no1 | inactive: 1.4%
40 | COc1ccc(OC)c(N(CC(=O)Nc2cccc3ccccc23)S(C)(=O)=O)c1 | inconclusive: -49.2%
41 | C=CCC(NCc1ccccc1)c1ccc(OC)cc1 (stereo not given) | inconclusive: 6.2%
42 | O=C1CCC(C(=O)Nc2ccc([N+](=O)[O-])cc2)N1 (stereo not given) | inactive: 5.5%
43 | Cc1ccccc1OCC(O)CN1C(=O)c2ccccc2C1=O (stereo not given) | inconclusive: -27.2%
44 | COc1cc2c(cc1OC)CN(S(=O)(=O)/C=C/c1ccccc1)CC2 | active: 39.9%
45 | O=[N+]([O-])c1ccccc1CN1CC=C(c2ccc(F)cc2)CC1 | inconclusive: 3.8%
46 | C=CCn1c(O)c(C(CC)=NCCc2c[nH]c3ccccc23)c(=O)[nH]c1=O | inconclusive: 87.2%
47 | Cc1ccc(C#CC(C)(O)C(C)(C)C)cn1 (stereo not given) | inconclusive: -7.3%
48 | CCN(CC(=O)Nc1c(F)cccc1F)C(=O)CCOc1ccccc1 | inconclusive: 17.4%

Row | SMILES | inhibition
49 | Cc1cccc(OCC(=O)O/N=C(\N)c2ccc(Br)cc2)c1 | inconclusive: -30.8%
50 | CCOC(=O)COc1ccc2c3c(c(=O)oc2c1)CCCC3 | inconclusive: -9%
51 | O=C(CC1C(=O)NCCN1C(=O)Nc1ccccc1)Nc1ccc(F)cc1 (stereo not given) | inconclusive: -67.2%
52 | O=C(O)c1cn[nH]c1-c1cccc([N+](=O)[O-])c1 | inactive: -3.6%
53 | CCOc1ccc2nc(NC(=O)c3ccco3)sc2c1 | inconclusive: 29.2%
54 | O=c1[nH]c(=O)n(CCc2ccccc2)c(O)c1/C=N/N1CCOCC1 | inconclusive: -14.4%
55 | Cc1ccc(C)n1-c1cc([N+](=O)[O-])ccc1-n1ccnc1 | inconclusive: -9.6%
56 | OCCN1c2ccccc2CCc2ccccc21 | inconclusive: -12.7%
57 | Cc1cccc(-c2nc(NCCN(C)C)c3ccccc3n2)c1 | inactive: -10.7%
58 | Cc1ccc(-n2c(SCC(=O)N3CCCCC3)nc(O)cc2=O)cc1 | inconclusive: -101%
59 | CC(C)C(=O)Nc1ccccc1Cc1ccccc1 | inactive: -0.3%
60 | CCN1C(=O)NC(=O)/C(=C\c2cn(CC(=O)N3CCCC3)c3ccccc23)C1=O | inactive: -0.6%
61 | Cn1cc([N+](=O)[O-])c(C(=O)n2cccn2)n1 | inconclusive: 26.7%
62 | COn1c(=O)c(-c2cccc(Br)c2)[n+]([O-])c2ccccc21 | inconclusive: -11.5%
63 | Cc1ccc(-n2c(N)c(C(=O)N3CCN(C)CC3)sc2=S)cc1 | inactive: -1.9%
64 | Oc1ccccc1C1=NC(c2ccccc2)NC(c2ccccc2)C1 (stereo not given) | inactive: -6.6%
65 | Cc1ccc(-c2cc(C(F)(F)F)n3ncc(C(=O)NCc4ccco4)c3n2)cc1 | inactive: -4.4%
66 | Cc1cccn2c(=O)c(/C=C(\C#N)S(=O)(=O)c3ccccc3)c(N3CCC(C(N)=O)CC3)nc12 | inactive: 5.9%
67 | S=C1N(c2ccccc2)CN(CCN2CCOCC2)CN1c1ccccc1 | inconclusive: 12.8%
68 | COc1cc(CC(NC(C)=O)C(=O)NC2CCN(C(=O)c3ccc(C)cc3)CC2)cc(OC)c1 (stereo not given) | active: 42.8%
69 | O[C@@H]1C[C@H](c2ccc(Cl)cc2)N(Cc2cccs2)C[C@H]1n1cc(-c2ccc(F)cc2)nn1 | inactive: 2.3%
70 | COC(=O)COc1ccc(C(=O)Cn2c(NCCCO)nc3ccccc32)cc1 | inconclusive: -25.9%
71 | CS(=O)(=O)N1CCc2cc(C(=O)Nc3ccc(O)cc3)ccc21 | active: 55.7%
72 | O=c1c2ccccc2cnn1-c1nc2ccccc2[nH]1 | inactive: 0.9%

Reformatted: three of the compounds above
Row	SMILES	inhibition
53	CCOc1ccc2nc(NC(=O)c3ccco3)sc2c1	inconclusive: 29.2%
54	O=c1[nH]c(=O)n(CCc2ccccc2)c(O)c1/C=N/N1CCOCC1	inconclusive: -14.4%
55	Cc1ccc(C)n1-c1cc([N+](=O)[O-])ccc1-n1ccnc1	inconclusive: -9.6%

Further results follow.

Row | SMILES | inhibition
73 | COc1ccc(C(=O)NNC(=O)COC(=O)c2sccc2C)cc1 | inactive: 0.4%
74 | CC(CN1CCCC1)OC(=O)c1ccc(Cl)cc1Cl (stereo not given) | inconclusive: -7.7%
75 | COc1ccc(/C=C2\SC(=Nc3ccccc3OC)NC2=O)cc1 | inconclusive: -0.7%
76 | CCc1ccc(S(=O)(=O)Nc2nnc(N)s2)cc1 | inconclusive: -0.3%
77 | O=C(c1ccc2ccccc2c1)N1CCN(Cc2ccccc2)CC1 | inactive: -1.3%
78 | CNC(=O)c1ccc(Nc2nc(-c3ccccc3)nc3ccccc23)cc1 | inactive: 9.8%
79 | O=C(NC1CCCCC1)c1noc2c1CCCCC2 | inactive: 1.3%
80 | O=C(NN=Cc1ccc(N(CCCl)CCCl)cc1)c1cccc([N+](=O)[O-])c1 | inactive: -4.2%
81 | O=C(C1CCCC1)N1CCN(S(=O)(=O)c2ccc(F)cc2)CC1 | inactive: -16.8%
82 | COc1cc2c(c(OC)c1O)C(=O)CO2 | inconclusive: 9.4%
83 | Clc1ccc(N2N=C(c3cccs3)CC2c2ccco2)cc1 (stereo not given) | inactive: 9.9%
84 | COc1ccc(/C=N/n2c(C)nc3sc(C)c(C)c3c2=O)cc1 | active: 38.5%
85 | CCOC(=O)c1[nH]c2ccc(F)cc2c1NC(=O)C1=COCCO1 | inconclusive: -27.2%
86 | N#Cc1cccnc1N1CCN(C(=O)c2cccs2)CC1 | inactive: 25%
87 | CCn1c(SCC(=O)Nc2cccc(C(C)=O)c2)nnc1C(C)C | inconclusive: 1.7%
88 | CCOC(=O)c1sc(NC(=O)CC(C)c2ccccc2)nc1C (stereo not given) | inconclusive: 9.9%
89 | CCCc1cc(C(F)(F)F)c(C#N)c(=O)[nH]1 | inconclusive: 4%
90 | Cc1nnc(NC(=O)c2cccc(S(=O)(=O)N3CCN(C)CC3)c2)s1 | inconclusive: -2.3%
91 | Cc1ccsc1C1CC(=O)Nc2ccccc2S1 (stereo not given) | inconclusive: 25.6%
92 | O=c1c2ccccc2nc(/C=C/c2ccc(Br)cc2)n1CCCO | inconclusive: -26.3%
93 | Cc1ccc(/C=N/n2c(C)n[nH]c2=S)o1 | inactive: 2.7%
94 | S=C(NN=Cc1ccccn1)N(Cc1ccccn1)Cc1ccccn1 | inactive: 16.7%
95 | COc1ccc(-c2c(N)nnc3c2[nH]c2ccccc23)cc1OC | inconclusive: 0.1%

Part of the list above in order of SMILES length, ascending:
Row | SMILES | inhibition
95 | COc1ccc(-c2c(N)nnc3c2[nH]c2ccccc23)cc1OC | inconclusive: 0.1%
81 | O=C(C1CCCC1)N1CCN(S(=O)(=O)c2ccc(F)cc2)CC1 | inactive: -16.8%
80 | O=C(NN=Cc1ccc(N(CCCl)CCCl)cc1)c1cccc([N+](=O)[O-])c1 | inactive: -4.2%
